Results reported in PubChem BioAssay AID540275 (National Center for Advancing Translational Sciences (NCATS), 2011).
In all, about 320,000 compounds went through this assay and about 620 (0.19%) were called active. The shares of active, inactive and inconclusive entries below differ from those in the screen. Rule as the data show it: active = activation above about 80%; inconclusive = between about 30% and that limit; inactive = weaker than that.

The chains behind the UniProt entries cited, without tags or fusion partners.
UniProt Q8NER1, whole entry, looked up: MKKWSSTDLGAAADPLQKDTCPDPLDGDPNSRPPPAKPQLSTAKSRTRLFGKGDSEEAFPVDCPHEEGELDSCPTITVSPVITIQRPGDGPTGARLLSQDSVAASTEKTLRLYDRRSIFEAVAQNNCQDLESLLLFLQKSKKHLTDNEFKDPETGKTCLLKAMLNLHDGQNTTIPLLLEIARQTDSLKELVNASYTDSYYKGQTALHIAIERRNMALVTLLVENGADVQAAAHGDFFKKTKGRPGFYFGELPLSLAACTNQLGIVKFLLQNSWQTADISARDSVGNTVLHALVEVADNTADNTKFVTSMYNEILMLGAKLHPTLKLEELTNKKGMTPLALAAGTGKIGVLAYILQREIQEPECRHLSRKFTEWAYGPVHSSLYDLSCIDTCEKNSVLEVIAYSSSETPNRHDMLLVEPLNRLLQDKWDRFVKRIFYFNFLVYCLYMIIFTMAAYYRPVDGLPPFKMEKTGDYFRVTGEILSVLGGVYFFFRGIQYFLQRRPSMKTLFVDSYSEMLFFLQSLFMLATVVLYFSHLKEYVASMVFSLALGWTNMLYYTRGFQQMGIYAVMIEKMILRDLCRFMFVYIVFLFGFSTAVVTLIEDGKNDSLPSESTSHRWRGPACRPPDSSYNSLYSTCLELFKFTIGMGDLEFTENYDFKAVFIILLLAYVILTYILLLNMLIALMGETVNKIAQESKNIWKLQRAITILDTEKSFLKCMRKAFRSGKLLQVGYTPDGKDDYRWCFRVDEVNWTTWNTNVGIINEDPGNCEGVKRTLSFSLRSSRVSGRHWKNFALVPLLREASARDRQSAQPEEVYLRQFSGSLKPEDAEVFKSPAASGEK

These compounds were tested against Transient receptor potential cation channel subfamily V member 1 (Homo sapiens) (UniProt Q8NER1) (assay: HTS Assay for Compounds that Act as Agonists of the Vanilloid Receptor 1). Settings: TRPV1-expressing cells, Fluo-8 calcium influx, agonist mode; at 8.33 µM, active compounds read high.
How it was run: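 Cells expressing TRPV1 were dye-loaded with Fluo-8 and read kinetically: 10 s baseline, 3 min after compound (agonist portion), then 2 min after EC20 capsaicin (allosteric enhancer portion). Calcium-bound dye fluorescence at 480/520 nm.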
Also: 0% is about no effect.

Row | SMILES | activation
1 | CNC(=O)c1ccc(NC(=O)c2cccc(C(F)(F)F)c2)cc1 | inconclusive: 49.3%
2 | Cc1cccc(C(=O)Nc2ccc(CC(=O)O)cc2)c1 | inactive: 1.02%
3 | O=[N+]([O-])c1ccc(S(=O)(=O)N2CCN(C3CCN(Cc4ccccc4)CC3)CC2)cc1 | inactive: 1.07%
4 | CC(=O)Nc1nc(COc2ccccc2)cs1 | inconclusive: 37.5%
5 | COc1ccc(-c2cnnc(N/N=C/C(C)=C/c3ccccc3)n2)cc1 | inactive: -6.95%
6 | COc1cc(OC)cc(C(=O)Nc2ccc3c(c2)CCCN3C(=O)c2cccs2)c1 | inactive: -1.88%
7 | CC(=O)NCC1CCCN(Cc2cn(-c3ccccc3)nc2-c2ccc3c(c2)OCO3)C1 (stereo not drawn) | inconclusive: 40.7%
8 | Cc1ccccc1C(=O)Nc1ccc2c(c1)OCCO2 | inactive: -1.04%
9 | COCCn1cc(C(=O)NCCCN2CCC(C)CC2)c2c3ccccc3n(C)c2c1=O | inactive: -1.15%
10 | N#Cc1ccc(C(=O)NCCCSc2ccccc2)cc1 | inconclusive: 58.9%
11 | CC(C)(C)Cc1nc2ccccc2n1CCc1ccccc1 | inconclusive: 62.5%
12 | CCCCCCCn1ccc(=N)cc1 | inactive: 0.554%
13 | CC(C)C[C@@H](CO)N(Cc1ccccc1)S(=O)(=O)N(Cc1ccccc1)[C@H](CO)CC(C)C | inconclusive: 38.2%
14 | O=C(NCC1CCCO1)c1ccc2c(c1)N(Cc1ccccc1)CCS2 (stereo not drawn) | inconclusive: 65.3%
15 | CN1CCN(c2ccc(NC(=S)NC(=O)c3cccc4c(Br)cccc34)cc2)CC1 | inactive: -1.76%
16 | CC1CCC2C(=O)N(c3cccc(C(=O)Nc4ccc(F)cc4)c3)C(=O)C2C1 (stereo not drawn) | inconclusive: 39.9%
17 | CCOC(=O)c1cccc(NC(=S)NCc2ccc(C)cc2)c1 | inconclusive: 52.3%
18 | CCCCOc1ccc(-c2c(C#N)c(N)nc(SCC(N)=O)c2C#N)cc1 | inactive: -4.66%
19 | Cc1cc2c(c(=O)o1)C(c1ccc([N+](=O)[O-])o1)C(C#N)=C(N)O2 (stereo not drawn) | inactive: -2.86%
20 | CCOc1ccc2nc(SCC(=O)NCc3ccc4c(c3)OCO4)[nH]c2c1 | inconclusive: 73.4%
21 | CN(C)c1ccc(/C=C(\Cl)c2nc3ccccc3s2)cc1 | inactive: -1.43%
22 | CN1C(=O)C(C)(C)N(C(=O)c2cccc([N+](=O)[O-])c2)c2ccccc21 | inconclusive: 33.4%

Row | SMILES | activation
23 | O=C(Nc1ccc2cn[nH]c2c1)c1ccc(S(=O)(=O)N2CCOCC2)cc1 | inconclusive: 63.5%
24 | O=C(Nc1ccc2c(c1)OCCO2)C1CC(c2ccccc2Cl)=NO1 (stereo not drawn) | inconclusive: 38.3%
25 | Clc1ccc2[nH]c3c(N4CCC5(CC4)OCCO5)ncnc3c2c1 | inconclusive: 42%
26 | CC(=O)NCCc1nc2ccccc2n1Cc1ccc(C)cc1 | inconclusive: 71%
27 | CCC(C)(C)C1CCC2(CC1)NC(=O)N(CC(=O)N1CCN(S(=O)(=O)c3cc(C)ccc3C)CC1)C2=O (stereo not drawn) | inactive: 2.39%
28 | O=C(CN(Cc1ccccc1)S(=O)(=O)c1cccc(C(F)(F)F)c1)NC1CCCCC1 | inconclusive: 62.5%
29 | Cc1cccc(OCC(=O)N2CCC3(CC2)CC(=O)c2ccccc2O3)c1 | inconclusive: 37.1%
30 | COc1cccc(NC(=O)CSc2nnc(-c3ccc(C)cc3)o2)c1 | inconclusive: 43.7%
31 | Cc1ccc(-c2nnc(COC(=O)c3cccs3)o2)cc1 | inconclusive: 35.5%
32 | CN(CC(=O)Nc1ccc(Cl)c(C(F)(F)F)c1)C(=O)c1ccc(N2CCOCC2)c([N+](=O)[O-])c1 | inactive: 2.68%
33 | OCCCNc1nccc(-c2cc(Nc3cccc(Cl)c3)ncn2)n1 | inconclusive: 51.4%
34 | COCCCNc1oc(-c2ccccc2Cl)nc1C#N | inconclusive: 30.2%
35 | Cc1cccn2c(=O)c3cc(C(=O)NCc4ccco4)c(=N)n(C4CCCCC4)c3nc12 | inconclusive: 59.4%
36 | CC1(c2ccc(OC(F)F)cc2)NC(=O)N(CC(=O)Nc2ccc3[nH]c(=O)[nH]c3c2)C1=O (stereo not drawn) | inactive: -6.55%
37 | Cc1ccc(NC(=O)CN2CCc3ccccc3C2)cc1 | inconclusive: 36.5%
38 | Cc1ccc(-c2noc(C3CCCN(C(=O)c4ccc(C(C)(C)C)cc4)C3)n2)o1 (stereo not drawn) | inconclusive: 40.1%
39 | COc1ccc2nc(SC(C)C(=O)NC3CCCCC3)[nH]c2c1 (stereo not drawn) | inconclusive: 32.8%
40 | O=C1CCC(C(=O)Nc2cccc(Oc3ccccc3)c2)=NN1 | inconclusive: 45.6%
41 | CCc1c(C(=O)N/N=C/c2ccsc2)csc1C | inconclusive: 53.8%
42 | CC1CCCCC1NC(=O)CN(C)S(=O)(=O)c1ccc2c(c1)CCC(=O)N2 (stereo not drawn) | inconclusive: 68%
43 | CCOC(=O)C1CCCN(S(=O)(=O)c2ccc(-c3cc(C)no3)s2)C1 (stereo not drawn) | inconclusive: 55.4%
44 | COC(=O)c1cccc(NC(=S)NCc2ccc(F)cc2)c1 | inconclusive: 52.9%

Row | SMILES | activation
45 | O=C(Nc1ccc(Cl)c(Cl)c1)N1CCSCC1 | inconclusive: 63%
46 | CC(C)(C)c1ccc(NC(=S)NCc2cccs2)cc1 | inconclusive: 64.8%
47 | CCn1c(O)c(N=NC(=O)CNC(=O)/C=C/c2ccccc2)c2ccccc21 | inactive: -2.23%
48 | O=C(NC(=S)Nc1cccc2ncccc12)c1ccco1 | inactive: -0.488%
49 | CCc1cc2c3c(c1)C1(C(=O)N3C(C)(C)CC2C)C(C#N)=C(N)N2C(=C1C#N)Nc1ccccc12 (stereo not drawn) | inconclusive: 49.6%
50 | COc1ccc(N(C(=O)c2snc(C(N)=O)c2N)C(C(=O)NCC2CCCO2)c2ccc(C)o2)cc1OC (stereo not drawn) | inactive: -2.08%
51 | O=C(N/N=C\c1ccccn1)c1ccccc1O | inconclusive: 64.5%
52 | CCCCCC(=O)Nc1ccc(S(=O)(=O)Nc2nccnc2OC)cc1 | inactive: 0.0654%
53 | O=C(Oc1c(Cl)cc(Cl)c2cccnc12)c1cccc([N+](=O)[O-])c1 | inactive: -3.16%
54 | CCOc1cccc(/C=N/NC(=O)c2ccc3c(c2)OCCO3)c1O | inconclusive: 64.1%
55 | CCCCCCCCCCCC(=O)NC1CCS(=O)(=O)C1 (stereo not drawn) | inconclusive: 37.2%
56 | O=C(Nc1ccc(Cl)cc1)N1CCN(Cc2ccc3c(c2)OCO3)CC1 | inconclusive: 77.4%
57 | O=C(CCN1C(=O)/C(=C/c2cccs2)SC1=S)Nc1ccccc1O | inconclusive: 32.9%
58 | Cc1cccc(C(=O)NNC(=O)/C=C/C(=O)O)c1 | inconclusive: 34.1%
59 | O=[N+]([O-])c1ccc(C2CC(c3ccccc3)=Nc3ccccc3S2)cc1 (stereo not drawn) | inconclusive: 59%
60 | O=C(COC(=O)Cc1ccccc1[N+](=O)[O-])NCC1CCCCC1 | inconclusive: 37.1%
61 | COc1cc2c(cc1OC)CN(C(=O)c1cc(C3CC3)nn1-c1ccccc1)CC2 | inconclusive: 50.7%
62 | O=C(Nc1ccc(Br)cc1)N1CCCCCC1 | inconclusive: 61%
63 | CC(C)c1ccc(-c2cc(C(=O)N3CCOCC3)c3cc(Br)ccc3n2)cc1 | inactive: 4.96%
64 | Cc1ccc(-c2csc(NC(=O)C3=COCCO3)n2)cc1 | inconclusive: 35.7%
65 | CCc1ccc2oc(-c3ccc(OC)cc3)cc(=Nc3cccc(C(=O)O)c3)c2c1 | inconclusive: 43.6%
66 | COC(=O)[C@@]12CCCCN1[C@H](c1ccc(-c3ccc(OC)cc3)c(OC)c1)[C@@H]1C(=O)N(C)C(=O)[C@@H]12 | inactive: 4.06%

Row | SMILES | activation
67 | O=C(NC1CCCCC1)c1cc2cc(Br)ccc2o1 | inconclusive: 66.3%
68 | Cc1cccc(C(=O)Nc2ccc(C(=O)/C=C/c3ccncc3)cc2)c1 | inactive: 11.6%
69 | Cc1ccc2nc(-c3ccccc3)cc(C(=O)N(C)CC(=O)Nc3ccccc3Br)c2c1 | inconclusive: 35.4%
70 | O=C(C[C@H]1C(=O)N(C2CCCCC2)C[C@@H]1Cc1ccccc1)Nc1ccccc1 | active: 85%
71 | Cc1ccc(C(=O)N2CCN(c3ccc(NC(=S)NC(=O)c4cccs4)cc3)CC2)cc1 | inactive: 0.244%
72 | CCOC(=O)C1CCCN(c2c(C(=O)c3ccc(C)cc3)cnc3ccc(OCC)cc23)C1 (stereo not drawn) | inconclusive: 43%
73 | O=C(N/N=C/c1sc(N2CCOCC2)nc1-c1ccccc1)c1ccccc1O | inconclusive: 35.1%
74 | CCNc1ccc(S(=O)(=O)N(C)C)cc1NCC(=O)Nc1ccc(F)c(Cl)c1 | inconclusive: 55.1%
75 | CN(CCCC(=O)Nc1ccccc1)S(=O)(=O)c1ccc(Cl)cc1 | inconclusive: 45.8%
76 | Cc1c(NC(=S)N/N=C/c2ccc(Br)cc2)c(=O)n(-c2ccccc2)n1C | inactive: -0.276%
77 | O=C(NCCCCc1ccccc1)c1ccccc1F | inconclusive: 53.9%
78 | CC(=O)Oc1ccc2c(c1)OC(c1ccccc1)CC21CC(C)(C)NC(=S)N1 (stereo not drawn) | inconclusive: 42.4%
79 | CCOC(=O)N1CCN(c2ccc(Cl)c(Cl)c2)CC1 | inconclusive: 40.4%
80 | O=C1CCCC2=C1Sc1ccc(Cl)cc1N2 | inactive: 12.8%
81 | COc1ccc(N=C2S/C(=C\c3cc(C)n(C)c3C)C(=O)N2CC(C)C)cc1 | inconclusive: 45%
82 | CCOC(=O)C1=C(O)C(=O)N(Cc2ccccc2)C1 | inactive: -0.618%
83 | O=c1c(O)c(-c2ccc(O)c(O)c2)oc2cc(O)cc(O)c12 | inactive: -1.69%
84 | COc1ccc2[nH]cc(CCNC(=S)NCCc3ccccc3)c2c1 | inconclusive: 43.6%
85 | O=C(Nc1cccnc1Cl)c1cc(-c2ccc(Br)cc2)on1 | inactive: -1.19%
86 | Cc1ccc(C(=O)OCc2cc3ccccc3[nH]c2=O)cc1 | inactive: 13%
87 | CCOc1ccccc1NC(=O)C1=C(C)NC(=O)NC1c1cccs1 (stereo not drawn) | inconclusive: 31.6%
88 | C/C(Cn1cnc([N+](=O)[O-])n1)=N\NC(=O)c1ccc(F)cc1 | inconclusive: 36.9%

A run of entries from the list above, for reference:
Row | SMILES | activation
67 | O=C(NC1CCCCC1)c1cc2cc(Br)ccc2o1 | inconclusive: 66.3%
68 | Cc1cccc(C(=O)Nc2ccc(C(=O)/C=C/c3ccncc3)cc2)c1 | inactive: 11.6%
69 | Cc1ccc2nc(-c3ccccc3)cc(C(=O)N(C)CC(=O)Nc3ccccc3Br)c2c1 | inconclusive: 35.4%
70 | O=C(C[C@H]1C(=O)N(C2CCCCC2)C[C@@H]1Cc1ccccc1)Nc1ccccc1 | active: 85%
71 | Cc1ccc(C(=O)N2CCN(c3ccc(NC(=S)NC(=O)c4cccs4)cc3)CC2)cc1 | inactive: 0.244%
72 | CCOC(=O)C1CCCN(c2c(C(=O)c3ccc(C)cc3)cnc3ccc(OCC)cc23)C1 (stereo not drawn) | inconclusive: 43%
73 | O=C(N/N=C/c1sc(N2CCOCC2)nc1-c1ccccc1)c1ccccc1O | inconclusive: 35.1%
74 | CCNc1ccc(S(=O)(=O)N(C)C)cc1NCC(=O)Nc1ccc(F)c(Cl)c1 | inconclusive: 55.1%
75 | CN(CCCC(=O)Nc1ccccc1)S(=O)(=O)c1ccc(Cl)cc1 | inconclusive: 45.8%
76 | Cc1c(NC(=S)N/N=C/c2ccc(Br)cc2)c(=O)n(-c2ccccc2)n1C | inactive: -0.276%
77 | O=C(NCCCCc1ccccc1)c1ccccc1F | inconclusive: 53.9%
78 | CC(=O)Oc1ccc2c(c1)OC(c1ccccc1)CC21CC(C)(C)NC(=S)N1 (stereo not drawn) | inconclusive: 42.4%
79 | CCOC(=O)N1CCN(c2ccc(Cl)c(Cl)c2)CC1 | inconclusive: 40.4%
80 | O=C1CCCC2=C1Sc1ccc(Cl)cc1N2 | inactive: 12.8%
81 | COc1ccc(N=C2S/C(=C\c3cc(C)n(C)c3C)C(=O)N2CC(C)C)cc1 | inconclusive: 45%
82 | CCOC(=O)C1=C(O)C(=O)N(Cc2ccccc2)C1 | inactive: -0.618%
